According to the supplement of paper PMC12823440, “Inhibitors supercharge kinase turnover through native proteolytic circuits” (Nature, 2025):
Structures can show the parent of a compound that is named as a salt. The list shows a part of the results. The calls rarely recur for the same compound in another form.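 Kinases, fused to nanoluciferase, were expressed in K562 cells; luminescence was measured every 4 h from 2 to 18 h as percent of control (DMSO = 100%, positive control = 0%). A time point is decreased if signal falls significantly (2 sigma). Hits were called by the authors by a rule that is not shown; the count of time points alone does not decide it.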

Chains of the proteins cited; added tags and fusions are not shown. Lines headed by an entry give the natural chain unless they say otherwise; changes in a name come on top.
UniProt P28482, whole entry: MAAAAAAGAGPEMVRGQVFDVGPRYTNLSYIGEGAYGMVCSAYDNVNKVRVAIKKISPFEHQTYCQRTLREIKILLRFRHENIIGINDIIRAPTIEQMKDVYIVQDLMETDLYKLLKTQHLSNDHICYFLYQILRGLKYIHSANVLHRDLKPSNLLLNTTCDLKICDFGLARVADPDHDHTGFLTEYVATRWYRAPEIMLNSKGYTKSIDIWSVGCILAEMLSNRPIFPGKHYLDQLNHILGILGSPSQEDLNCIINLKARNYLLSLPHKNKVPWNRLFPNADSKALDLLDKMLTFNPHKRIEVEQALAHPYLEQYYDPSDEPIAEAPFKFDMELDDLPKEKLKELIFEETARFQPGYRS
UniProt P31152, whole entry: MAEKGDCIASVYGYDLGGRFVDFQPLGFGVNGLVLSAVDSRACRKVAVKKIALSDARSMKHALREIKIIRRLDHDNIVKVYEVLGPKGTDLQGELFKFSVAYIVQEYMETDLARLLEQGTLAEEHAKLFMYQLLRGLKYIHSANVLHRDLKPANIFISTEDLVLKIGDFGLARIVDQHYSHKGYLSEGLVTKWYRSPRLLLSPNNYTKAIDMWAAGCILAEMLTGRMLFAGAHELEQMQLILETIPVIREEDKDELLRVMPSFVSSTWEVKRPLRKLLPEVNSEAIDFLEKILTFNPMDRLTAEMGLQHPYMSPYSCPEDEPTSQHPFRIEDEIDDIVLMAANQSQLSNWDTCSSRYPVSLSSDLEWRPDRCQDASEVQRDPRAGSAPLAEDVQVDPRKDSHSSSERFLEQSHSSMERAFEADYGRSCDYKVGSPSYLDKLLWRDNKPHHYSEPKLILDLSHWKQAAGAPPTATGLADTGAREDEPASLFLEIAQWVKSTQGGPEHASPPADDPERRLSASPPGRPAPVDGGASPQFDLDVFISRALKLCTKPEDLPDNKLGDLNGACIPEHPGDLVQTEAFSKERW
UniProt P49137, whole entry, looked up: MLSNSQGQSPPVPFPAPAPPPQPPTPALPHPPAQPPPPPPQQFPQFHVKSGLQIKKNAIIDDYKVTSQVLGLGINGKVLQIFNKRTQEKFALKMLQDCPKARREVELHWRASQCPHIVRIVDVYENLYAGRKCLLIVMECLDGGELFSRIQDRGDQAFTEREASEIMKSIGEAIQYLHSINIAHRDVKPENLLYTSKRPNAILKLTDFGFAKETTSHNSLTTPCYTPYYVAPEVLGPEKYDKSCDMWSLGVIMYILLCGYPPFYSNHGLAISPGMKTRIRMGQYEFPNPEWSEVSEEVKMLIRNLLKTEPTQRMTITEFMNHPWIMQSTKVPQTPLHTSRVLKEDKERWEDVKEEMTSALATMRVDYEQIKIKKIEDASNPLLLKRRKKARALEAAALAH
UniProt Q9BUB5: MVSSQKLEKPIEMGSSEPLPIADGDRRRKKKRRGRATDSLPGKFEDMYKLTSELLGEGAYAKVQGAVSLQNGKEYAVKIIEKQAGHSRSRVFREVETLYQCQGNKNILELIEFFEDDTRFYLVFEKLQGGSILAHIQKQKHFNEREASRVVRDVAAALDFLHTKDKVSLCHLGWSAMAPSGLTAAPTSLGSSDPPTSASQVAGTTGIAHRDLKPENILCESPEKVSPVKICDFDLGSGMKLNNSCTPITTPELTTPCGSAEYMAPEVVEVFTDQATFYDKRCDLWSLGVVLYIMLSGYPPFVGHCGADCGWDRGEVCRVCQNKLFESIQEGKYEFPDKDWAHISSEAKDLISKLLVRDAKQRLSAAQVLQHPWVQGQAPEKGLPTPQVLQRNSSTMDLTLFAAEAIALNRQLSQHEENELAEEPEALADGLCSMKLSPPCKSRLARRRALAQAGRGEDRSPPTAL
UniProt Q16288, whole entry, looked up: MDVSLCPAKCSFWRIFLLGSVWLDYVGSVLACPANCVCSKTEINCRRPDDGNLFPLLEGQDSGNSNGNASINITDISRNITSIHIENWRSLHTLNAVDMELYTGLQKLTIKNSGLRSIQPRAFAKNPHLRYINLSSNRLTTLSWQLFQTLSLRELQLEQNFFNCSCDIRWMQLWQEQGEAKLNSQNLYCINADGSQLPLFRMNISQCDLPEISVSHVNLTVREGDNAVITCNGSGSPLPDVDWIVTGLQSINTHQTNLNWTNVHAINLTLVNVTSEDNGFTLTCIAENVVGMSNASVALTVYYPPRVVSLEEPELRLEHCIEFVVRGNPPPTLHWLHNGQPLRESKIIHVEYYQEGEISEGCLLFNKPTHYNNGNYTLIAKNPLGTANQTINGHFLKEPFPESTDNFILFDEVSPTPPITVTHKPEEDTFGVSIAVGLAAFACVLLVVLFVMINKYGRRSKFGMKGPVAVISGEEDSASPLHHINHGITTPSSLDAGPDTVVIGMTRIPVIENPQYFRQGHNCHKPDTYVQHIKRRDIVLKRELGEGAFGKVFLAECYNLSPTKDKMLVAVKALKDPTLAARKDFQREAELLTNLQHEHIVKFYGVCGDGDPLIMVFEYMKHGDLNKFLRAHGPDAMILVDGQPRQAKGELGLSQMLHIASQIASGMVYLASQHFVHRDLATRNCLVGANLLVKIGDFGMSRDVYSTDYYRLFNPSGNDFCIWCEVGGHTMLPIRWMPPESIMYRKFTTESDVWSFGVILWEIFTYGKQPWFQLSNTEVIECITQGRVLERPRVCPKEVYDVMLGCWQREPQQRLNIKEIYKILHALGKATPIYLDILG
UniProt P09619, whole entry: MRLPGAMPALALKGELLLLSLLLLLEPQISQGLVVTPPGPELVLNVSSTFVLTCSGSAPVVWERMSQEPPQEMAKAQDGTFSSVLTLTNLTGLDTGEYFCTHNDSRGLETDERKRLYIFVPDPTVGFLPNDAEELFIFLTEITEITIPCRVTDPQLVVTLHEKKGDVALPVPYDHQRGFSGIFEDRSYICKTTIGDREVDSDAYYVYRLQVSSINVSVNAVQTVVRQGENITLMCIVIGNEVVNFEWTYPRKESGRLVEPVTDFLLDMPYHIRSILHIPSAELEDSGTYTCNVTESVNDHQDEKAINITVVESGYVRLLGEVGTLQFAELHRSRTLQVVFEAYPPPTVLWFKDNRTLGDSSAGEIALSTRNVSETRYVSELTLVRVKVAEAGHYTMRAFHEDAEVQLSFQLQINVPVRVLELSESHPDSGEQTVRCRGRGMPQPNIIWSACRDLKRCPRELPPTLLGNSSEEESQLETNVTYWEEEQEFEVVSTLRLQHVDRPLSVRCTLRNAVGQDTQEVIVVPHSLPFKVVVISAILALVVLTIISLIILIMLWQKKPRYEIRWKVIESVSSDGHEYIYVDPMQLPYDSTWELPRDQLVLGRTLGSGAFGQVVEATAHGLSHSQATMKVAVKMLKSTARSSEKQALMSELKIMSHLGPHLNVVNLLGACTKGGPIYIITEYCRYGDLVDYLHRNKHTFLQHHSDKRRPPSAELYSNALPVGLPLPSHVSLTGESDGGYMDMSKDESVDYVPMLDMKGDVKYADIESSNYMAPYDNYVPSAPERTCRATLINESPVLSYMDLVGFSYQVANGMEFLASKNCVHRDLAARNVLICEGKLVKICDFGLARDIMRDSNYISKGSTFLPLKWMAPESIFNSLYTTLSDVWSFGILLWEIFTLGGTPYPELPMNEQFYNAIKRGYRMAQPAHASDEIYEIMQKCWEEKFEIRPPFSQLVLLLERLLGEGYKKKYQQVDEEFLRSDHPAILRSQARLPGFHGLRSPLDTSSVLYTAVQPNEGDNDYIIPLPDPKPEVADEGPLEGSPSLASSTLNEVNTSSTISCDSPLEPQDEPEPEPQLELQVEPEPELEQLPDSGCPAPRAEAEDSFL
UniProt Q15118, whole entry, looked up: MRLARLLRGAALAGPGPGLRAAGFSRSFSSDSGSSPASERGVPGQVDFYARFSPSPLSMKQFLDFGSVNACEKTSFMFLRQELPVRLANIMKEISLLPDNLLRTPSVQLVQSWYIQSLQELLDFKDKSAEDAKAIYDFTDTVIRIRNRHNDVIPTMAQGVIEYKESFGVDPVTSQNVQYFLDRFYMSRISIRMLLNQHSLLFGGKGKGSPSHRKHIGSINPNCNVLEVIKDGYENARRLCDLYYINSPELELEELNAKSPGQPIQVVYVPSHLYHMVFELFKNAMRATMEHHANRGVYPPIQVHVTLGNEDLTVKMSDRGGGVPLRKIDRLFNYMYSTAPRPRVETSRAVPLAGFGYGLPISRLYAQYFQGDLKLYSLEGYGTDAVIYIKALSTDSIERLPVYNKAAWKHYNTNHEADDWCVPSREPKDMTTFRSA
UniProt P53350, whole entry: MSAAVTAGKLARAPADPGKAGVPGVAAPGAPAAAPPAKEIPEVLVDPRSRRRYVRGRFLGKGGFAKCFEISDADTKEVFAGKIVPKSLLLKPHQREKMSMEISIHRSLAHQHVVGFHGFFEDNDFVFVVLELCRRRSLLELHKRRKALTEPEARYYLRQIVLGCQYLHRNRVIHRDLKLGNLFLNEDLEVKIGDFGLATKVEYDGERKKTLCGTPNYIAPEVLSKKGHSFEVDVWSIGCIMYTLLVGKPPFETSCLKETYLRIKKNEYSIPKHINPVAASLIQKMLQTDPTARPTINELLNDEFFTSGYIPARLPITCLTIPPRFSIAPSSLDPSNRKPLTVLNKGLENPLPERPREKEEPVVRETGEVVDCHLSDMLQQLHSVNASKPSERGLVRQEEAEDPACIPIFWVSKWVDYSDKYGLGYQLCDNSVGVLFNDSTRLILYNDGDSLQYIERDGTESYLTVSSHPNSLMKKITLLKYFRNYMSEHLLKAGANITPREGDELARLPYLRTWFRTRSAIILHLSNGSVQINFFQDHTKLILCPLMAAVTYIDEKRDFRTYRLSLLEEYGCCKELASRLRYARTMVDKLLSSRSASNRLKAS
UniProt Q14289, whole entry, looked up: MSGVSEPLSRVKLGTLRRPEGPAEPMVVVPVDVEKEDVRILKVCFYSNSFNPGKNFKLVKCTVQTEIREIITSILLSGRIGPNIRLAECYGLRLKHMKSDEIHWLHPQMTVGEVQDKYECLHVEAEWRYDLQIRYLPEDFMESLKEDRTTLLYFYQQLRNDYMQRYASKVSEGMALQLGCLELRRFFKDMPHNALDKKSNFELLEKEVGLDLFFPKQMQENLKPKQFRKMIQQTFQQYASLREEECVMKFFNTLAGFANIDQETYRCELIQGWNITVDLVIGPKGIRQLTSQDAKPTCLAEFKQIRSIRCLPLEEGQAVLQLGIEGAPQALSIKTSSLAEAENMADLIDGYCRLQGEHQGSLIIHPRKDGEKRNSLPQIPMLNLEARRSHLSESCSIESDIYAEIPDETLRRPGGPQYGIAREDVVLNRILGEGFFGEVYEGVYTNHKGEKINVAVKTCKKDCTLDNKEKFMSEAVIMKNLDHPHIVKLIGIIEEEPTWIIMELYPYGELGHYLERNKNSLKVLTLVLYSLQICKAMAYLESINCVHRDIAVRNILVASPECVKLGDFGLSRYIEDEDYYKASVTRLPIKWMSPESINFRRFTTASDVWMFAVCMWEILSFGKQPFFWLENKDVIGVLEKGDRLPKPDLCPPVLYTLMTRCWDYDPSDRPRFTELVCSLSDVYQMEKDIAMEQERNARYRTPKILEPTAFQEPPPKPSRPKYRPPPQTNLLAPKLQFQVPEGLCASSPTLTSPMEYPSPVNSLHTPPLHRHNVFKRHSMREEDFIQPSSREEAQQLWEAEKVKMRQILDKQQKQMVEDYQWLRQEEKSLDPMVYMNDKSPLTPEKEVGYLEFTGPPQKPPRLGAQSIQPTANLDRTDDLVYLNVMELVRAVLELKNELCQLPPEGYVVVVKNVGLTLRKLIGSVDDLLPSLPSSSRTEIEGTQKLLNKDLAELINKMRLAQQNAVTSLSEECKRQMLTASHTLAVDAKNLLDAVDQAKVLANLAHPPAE

What was measured:
Assay in all cases: kinase-Nluc reporter destabilization hit call (1 = scored as downregulated) (binary); higher = compound decreases kinase abundance
Details in all cases: K562; 2-18 h
MAPK1 = MAPK1 (UniProt P28482)
MAPK4 = MAPK4 (UniProt P31152)
MAPKAPK2 = MAPKAPK2 (UniProt P49137)
MKNK1 = MKNK1 (UniProt Q9BUB5)
NTRK2 = NTRK2 (UniProt Q16620)
NTRK3 = NTRK3 (UniProt Q16288)
PAK4 = PAK4 (UniProt O96013)
PBK = PBK (UniProt Q96KB5)
PDGFRB = PDGFRB (UniProt P09619)
PDK1 = PDK1 (UniProt Q15118)
PDPK1 = PDPK1 (UniProt O15530)
PIK4CA = PIK4CA (UniProt P42356)
PIK4CB = PIK4CB (UniProt Q9UBF8)
PLK1 = PLK1 (UniProt P53350)
PRKAA1 = PRKAA1 (UniProt Q13131)
PRKCA = PRKCA (UniProt P17252)
PTK2 = PTK2 (UniProt Q05397)
PTK2B = PTK2B (UniProt Q14289)
RAF1 = RAF1 (UniProt P04049)
[1] = molecular target: RAF1_S257L (clone: RAF1_mut) (UniProt P04049)

Measured: kinase-Nluc reporter destabilization hit call

Nc1ncc(-c2ccnc(Nc3ccncc3)n2)c(CC2CC2)n1 (10 µM)
inactive: MAPK1 = 0 | MAPK4 = 0 | MAPKAPK2 = 0 | MKNK1 = 0 | NTRK2 = 0 | NTRK3 = 0 | PAK4 = 0 | PBK 0 | PDGFRB 0 | PDK1 = 0 | PDPK1 = 0 | PIK4CA 0 | PIK4CB 0 | PLK1 = 0 | PRKAA1 = 0 | PRKCA 0 | PTK2 = 0 | PTK2B 0 | RAF1 = 0 | [1] 0

CC(C)(C)Cc1[nH]nc2c1[C@@](C)(c1ccccc1)C1=C(CC(C)(C)CC1=O)N2 (10 µM)
inactive: MAPK1 = 0 | MAPK4 = 0 | MAPKAPK2 = 0 | MKNK1 = 0 | NTRK2 = 0 | NTRK3 = 0 | PAK4 = 0 | PBK 0 | PDGFRB 0 | PDK1 = 0 | PDPK1 = 0 | PIK4CA 0 | PIK4CB 0 | PLK1 = 0 | PRKAA1 = 0 | PRKCA 0 | PTK2 = 0 | PTK2B 0 | RAF1 = 0 | [1] 0

Cn1c(CNc2cccc(C(=O)NCc3ccccc3C(F)(F)F)c2)nnc1-c1ccncc1 (10 µM)
inactive: MAPK1 = 0 | MAPK4 = 0 | MAPKAPK2 = 0 | MKNK1 = 0 | NTRK2 = 0 | NTRK3 = 0 | PAK4 = 0 | PBK 0 | PDGFRB 0 | PDK1 = 0 | PDPK1 = 0 | PIK4CA 0 | PIK4CB 0 | PLK1 = 0 | PRKAA1 = 0 | PRKCA 0 | PTK2 = 0 | PTK2B 0 | RAF1 = 0 | [1] 0

C[C@@H]1O[C@@H](Oc2cc(O)c3c(=O)c(O[C@@H]4O[C@@H](C)[C@H](O)[C@@H](O)[C@H]4O)c(-c4ccc(O)cc4)oc3c2)[C@H](O)[C@H](O)[C@H]1O [Kaempferitrin] (10 µM)
inactive: MAPK1 = 0 | MAPK4 = 0 | MAPKAPK2 = 0 | MKNK1 = 0 | NTRK2 = 0 | NTRK3 = 0 | PAK4 = 0 | PBK 0 | PDGFRB 0 | PDK1 = 0 | PDPK1 = 0 | PIK4CA 0 | PIK4CB 0 | PLK1 = 0 | PRKAA1 = 0 | PRKCA 0 | PTK2 = 0 | PTK2B 0 | RAF1 = 0 | [1] 0

N#Cc1cnc2c(Cl)cc(NCc3cn(CCN4CCCCCC4)nn3)cc2c1Nc1ccc(F)c(Cl)c1 [Cot inhibitor-1] (10 µM)
inactive: MAPK1 = 0 | MAPK4 = 0 | MAPKAPK2 = 0 | MKNK1 = 0 | NTRK2 = 0 | NTRK3 = 0 | PAK4 = 0 | PBK 0 | PDGFRB 0 | PDK1 = 0 | PDPK1 = 0 | PIK4CA 0 | PIK4CB 0 | PLK1 = 0 | PRKAA1 = 0 | PRKCA 0 | PTK2 = 0 | PTK2B 0 | RAF1 = 0 | [1] 0

C=CC(=O)Nc1cc(Nc2nccc(-c3cn(C)c4ccccc34)n2)c(OC)cc1N(C)CCNC [AZ7550 Mesylate] (2.5 µM)
inactive: MAPK1 = 0 | MAPK4 = 0 | MAPKAPK2 = 0 | MKNK1 = 0 | NTRK2 = 0 | NTRK3 = 0 | PAK4 = 0 | PBK 0 | PDGFRB 0 | PDK1 = 0 | PDPK1 = 0 | PIK4CA 0 | PIK4CB 0 | PLK1 = 0 | PRKAA1 = 0 | PRKCA 0 | PTK2 = 0 | PTK2B 0 | RAF1 = 0 | [1] 0

NS(=O)(=O)c1ccc(Nc2nc(-c3cccc(-c4ccccc4)c3)c3[nH]cnc3n2)cc1 (10 µM)
inactive: MAPK1 = 0 | MAPK4 = 0 | MAPKAPK2 = 0 | MKNK1 = 0 | NTRK2 = 0 | NTRK3 = 0 | PAK4 = 0 | PBK 0 | PDGFRB 0 | PDK1 = 0 | PDPK1 = 0 | PIK4CA 0 | PIK4CB 0 | PLK1 = 0 | PRKAA1 = 0 | PRKCA 0 | PTK2 = 0 | PTK2B 0 | RAF1 = 0 | [1] 0

COC(=O)[C@H](CCSC)NC(=O)c1ccc(NC[C@@H](N)CS)cc1-c1ccccc1 [FTI-277 (hydrochloride)] (10 µM)
inactive: MAPK1 = 0 | MAPK4 = 0 | MAPKAPK2 = 0 | MKNK1 = 0 | NTRK2 = 0 | NTRK3 = 0 | PAK4 = 0 | PBK 0 | PDGFRB 0 | PDK1 = 0 | PDPK1 = 0 | PIK4CA 0 | PIK4CB 0 | PLK1 = 0 | PRKAA1 = 0 | PRKCA 0 | PTK2 = 0 | PTK2B 0 | RAF1 = 0 | [1] 0

CC(C)n1c([C@H](C)Nc2ncnc(N)c2C#N)cc2cccc(-c3ccc(=O)n(C)c3)c2c1=O (10 µM)
inactive: MAPK1 = 0 | MAPK4 = 0 | MAPKAPK2 = 0 | MKNK1 = 0 | NTRK2 = 0 | NTRK3 = 0 | PAK4 = 0 | PBK 0 | PDGFRB 0 | PDK1 = 0 | PDPK1 = 0 | PIK4CA 0 | PIK4CB 0 | PLK1 = 0 | PRKAA1 = 0 | PRKCA 0 | PTK2 = 0 | PTK2B 0 | RAF1 = 0 | [1] 0

COc1cc2ncnc(Oc3ccc(CC(=O)Nc4cnn(C(C)C)c4)cc3)c2cc1OC (10 µM)
inactive: MAPK1 = 0 | MAPK4 = 0 | MAPKAPK2 = 0 | MKNK1 = 0 | NTRK2 = 0 | NTRK3 = 0 | PAK4 = 0 | PBK 0 | PDGFRB 0 | PDK1 = 0 | PDPK1 = 0 | PIK4CA 0 | PIK4CB 0 | PLK1 = 0 | PRKAA1 = 0 | PRKCA 0 | PTK2 = 0 | PTK2B 0 | RAF1 = 0 | [1] 0

COc1cc(-c2cc(OP(=O)(O)O)cc(-c3cc(OC)c(OC)c(OC)c3)c2)cc(OC)c1OC [Stafia-1] (10 µM)
inactive: MAPK1 = 0 | MAPK4 = 0 | MAPKAPK2 = 0 | MKNK1 = 0 | NTRK2 = 0 | NTRK3 = 0 | PAK4 = 0 | PBK 0 | PDGFRB 0 | PDK1 = 0 | PDPK1 = 0 | PIK4CA 0 | PIK4CB 0 | PLK1 = 0 | PRKAA1 = 0 | PRKCA 0 | PTK2 = 0 | PTK2B 0 | RAF1 = 0 | [1] 0

O=C(O)[C@H]1O[C@@H](Oc2cc3oc(-c4ccc(O)cc4)cc(=O)c3c(O)c2O)[C@H](O)[C@@H](O)[C@@H]1O [Scutellarin] (10 µM)
inactive: MAPK1 = 0 | MAPK4 = 0 | MAPKAPK2 = 0 | MKNK1 = 0 | NTRK2 = 0 | NTRK3 = 0 | PAK4 = 0 | PBK 0 | PDGFRB 0 | PDK1 = 0 | PDPK1 = 0 | PIK4CA 0 | PIK4CB 0 | PLK1 = 0 | PRKAA1 = 0 | PRKCA 0 | PTK2 = 0 | PTK2B 0 | RAF1 = 0 | [1] 0

Looked up by compound from the list above (two):
COc1cc2ncnc(Oc3ccc(CC(=O)Nc4cnn(C(C)C)c4)cc3)c2cc1OC (10 µM)
inactive: MAPK1 = 0 | MAPK4 = 0 | MAPKAPK2 = 0 | MKNK1 = 0 | NTRK2 = 0 | NTRK3 = 0 | PAK4 = 0 | PBK 0 | PDGFRB 0 | PDK1 = 0 | PDPK1 = 0 | PIK4CA 0 | PIK4CB 0 | PLK1 = 0 | PRKAA1 = 0 | PRKCA 0 | PTK2 = 0 | PTK2B 0 | RAF1 = 0 | [1] 0

COC(=O)[C@H](CCSC)NC(=O)c1ccc(NC[C@@H](N)CS)cc1-c1ccccc1 [FTI-277 (hydrochloride)] (10 µM)
inactive: MAPK1 = 0 | MAPK4 = 0 | MAPKAPK2 = 0 | MKNK1 = 0 | NTRK2 = 0 | NTRK3 = 0 | PAK4 = 0 | PBK 0 | PDGFRB 0 | PDK1 = 0 | PDPK1 = 0 | PIK4CA 0 | PIK4CB 0 | PLK1 = 0 | PRKAA1 = 0 | PRKCA 0 | PTK2 = 0 | PTK2B 0 | RAF1 = 0 | [1] 0

Next structures:

O=C(O)c1ccc(/C=C/S(=O)(=O)Cc2ccc(Cl)cc2)cc1 [Recilisib] (10 µM)
inactive: MAPK1 = 0 | MAPK4 = 0 | MAPKAPK2 = 0 | MKNK1 = 0 | NTRK2 = 0 | NTRK3 = 0 | PAK4 = 0 | PBK 0 | PDGFRB 0 | PDK1 = 0 | PDPK1 = 0 | PIK4CA 0 | PIK4CB 0 | PLK1 = 0 | PRKAA1 = 0 | PRKCA 0 | PTK2 = 0 | PTK2B 0 | RAF1 = 0 | [1] 0

C[C@@H](Nc1ncnc2[nH]c(-c3ccc(O)cc3)cc12)c1ccccc1 (2.5 µM)
inactive: MAPK1 = 0 | MAPK4 = 0 | MAPKAPK2 = 0 | MKNK1 = 0 | NTRK2 = 0 | NTRK3 = 0 | PAK4 = 0 | PBK 0 | PDGFRB 0 | PDK1 = 0 | PDPK1 = 0 | PIK4CA 0 | PIK4CB 0 | PLK1 = 0 | PRKAA1 = 0 | PRKCA 0 | PTK2 = 0 | PTK2B 0 | RAF1 = 0 | [1] 0

CC(Sc1nc2c(cnn2-c2cccc(Cl)c2)c(=O)[nH]1)C(N)=O (stereo not given) (10 µM)
inactive: MAPK1 = 0 | MAPK4 = 0 | MAPKAPK2 = 0 | MKNK1 = 0 | NTRK2 = 0 | NTRK3 = 0 | PAK4 = 0 | PBK 0 | PDGFRB 0 | PDK1 = 0 | PDPK1 = 0 | PIK4CA 0 | PIK4CB 0 | PLK1 = 0 | PRKAA1 = 0 | PRKCA 0 | PTK2 = 0 | PTK2B 0 | RAF1 = 0 | [1] 0

CC(O)(C#Cc1ccc2c(c1)N(c1nc(N)ncc1Cl)CC2)c1nccs1 (stereo not given) (2.5 µM)
inactive: MAPK1 = 0 | MAPK4 = 0 | MAPKAPK2 = 0 | MKNK1 = 0 | NTRK2 = 0 | NTRK3 = 0 | PAK4 = 0 | PBK 0 | PDGFRB 0 | PDK1 = 0 | PDPK1 = 0 | PIK4CA 0 | PIK4CB 0 | PLK1 = 0 | PRKAA1 = 0 | PRKCA 0 | PTK2 = 0 | PTK2B 0 | RAF1 = 0 | [1] 0

O=c1cc(N2CCOCC2)oc2c(-c3ccc4c(c3)OCCO4)csc12 (2.5 µM)
inactive: MAPK1 = 0 | MAPK4 = 0 | MAPKAPK2 = 0 | MKNK1 = 0 | NTRK2 = 0 | NTRK3 = 0 | PAK4 = 0 | PBK 0 | PDGFRB 0 | PDK1 = 0 | PDPK1 = 0 | PIK4CA 0 | PIK4CB 0 | PLK1 = 0 | PRKAA1 = 0 | PRKCA 0 | PTK2 = 0 | PTK2B 0 | RAF1 = 0 | [1] 0

CN1CCN(c2cc(-c3ccncc3)c(-c3ccc4ccccc4c3)nn2)CC1 (10 µM)
inactive: MAPK1 = 0 | MAPK4 = 0 | MAPKAPK2 = 0 | MKNK1 = 0 | NTRK2 = 0 | NTRK3 = 0 | PAK4 = 0 | PBK 0 | PDGFRB 0 | PDK1 = 0 | PDPK1 = 0 | PIK4CA 0 | PIK4CB 0 | PLK1 = 0 | PRKAA1 = 0 | PRKCA 0 | PTK2 = 0 | PTK2B 0 | RAF1 = 0 | [1] 0
